Reference: the supplement of paper PMC4604168 (melanoma cell lines)
Some of the results follow. Many values rest on one well or one pass, so single values are uncertain.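 The apoptosis fraction was the count of cleaved-PARP antibody-stained nuclei relative to all DNA-stained nuclei, imaged in 1,536-well plates. Screening doses were set so most cells survived, and baseline and induced cleaved-PARP levels vary greatly across cell lines.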

These compounds were tested on 501Mel (assay: cleaved PARP positive nuclei fraction relative to DMSO control; melanoma cells; higher = more apoptosis). Conditions: library dose: low library concentration; 72 h.

Row | Compound | cleaved PARP positive nuclei fraction
1 | Cc1nc(Nc2ncc(C(=O)Nc3c(C)cccc3Cl)s2)cc(N2CCN(CCO)CC2)n1 [dasatanib] + O=C(CCCCCCC(=O)Nc1ccccc1)NO [vorinostat] (first compound 0.004 µM, partner dose 0.08 µM) | 111%
2 | Nc1cccc2c1CN(C1CCC(=O)NC1=O)C2=O (stereo not given) [lenalidomide] + CC(C)(C)c1cnc(CSc2cnc(NC(=O)C3CCNCC3)s2)o1 [SNS-032] (first compound 1 µM, partner dose 0.01 µM) | 75.9%
3 | OCc1c[nH]c2ccccc12 [Indole-3-carbinol] + Cc1ccc(NC(=O)c2cccc(N(C)C)c2)cc1NC(=O)c1ccc(O)cc1 [ZM336372] (first compound 0.8 µM, partner dose 2 µM) | 81.7%
4 | COc1cc(Nc2ncc(F)c(Nc3ccc4c(n3)NC(=O)C(C)(C)O4)n2)cc(OC)c1OC [Tamatinib] + COc1cc2c(Oc3ccc4[nH]c(C)cc4c3F)ncnc2cc1OCCCN1CCCC1 [cediranib] (first compound 0.4 µM, partner dose 0.4 µM) | 102%
5 | C#Cc1cccc(Nc2ncnc3cc(OCCOC)c(OCCOC)cc23)c1 [erlotinib] + CC(C)(C)c1cnc(CSc2cnc(NC(=O)C3CCNCC3)s2)o1 [SNS-032] (first compound 0.8 µM, partner dose 0.01 µM) | 70.9%
6 | Clc1ccc(Nc2nnc(Cc3ccncc3)c3ccccc23)cc1 [vatalanib] + Cc1cc(N2CCOCC2)cc2[nH]c(-c3c(NC[C@@H](O)c4cccc(Cl)c4)cc[nH]c3=O)nc12 [BMS536924] (first compound 2 µM, partner dose 0.2 µM) | 188%
7 | CC(=O)c1c(C)c2cnc(Nc3ccc(N4CCNCC4)cn3)nc2n(C2CCCC2)c1=O [palbociclib] + Cn1cncc1[C@@](N)(c1ccc(Cl)cc1)c1ccc2c(c1)c(-c1cccc(Cl)c1)cc(=O)n2C [tipifarnib] (first compound 0.04 µM, partner dose 0.01 µM) | 209%
8 | C[C@]1(c2nc3c(C(N)=O)cccc3[nH]2)CCCN1 [Veliparib] + Cc1ccc(NC(=O)c2cccc(N(C)C)c2)cc1NC(=O)c1ccc(O)cc1 [ZM336372] (first compound 1.4 µM, partner dose 2 µM) | 99.8%
9 | C=CCn1c(=O)c2cnc(Nc3ccc(N4CCN(C)CC4)cc3)nc2n1-c1cccc(C(C)(C)O)n1 + CN(C)S(=O)(=O)c1ccc2c(c1)/C(=C/c1cc3c([nH]1)CCCC3)C(=O)N2 [SU6656] (first compound 0.02 µM, partner dose 0.4 µM) | 198%
10 | Clc1ccc(Nc2nnc(Cc3ccncc3)c3ccccc23)cc1 [vatalanib] + O=C(CCCCCCC(=O)Nc1ccccc1)NO [vorinostat] (first compound 2 µM, partner dose 0.08 µM) | 88.2%
11 | OCc1c[nH]c2ccccc12 [Indole-3-carbinol] + COc1cc(Nc2ncc(F)c(Nc3ccc4c(n3)NC(=O)C(C)(C)O4)n2)cc(OC)c1OC [Tamatinib] (first compound 0.8 µM, partner dose 0.4 µM) | 98.4%
12 | COCC[n+]1c2c(n(Cc3cnccn3)c1C)C(=O)c1ccccc1C2=O + C=CCn1c(=O)c2cnc(Nc3ccc(N4CCN(C)CC4)cc3)nc2n1-c1cccc(C(C)(C)O)n1 [MK1775] (first compound 0.0004 µM, partner dose 0.02 µM) | 89.9%
13 | C=CCNC1=C2C[C@@H](C)C[C@H](OC)[C@H](O)[C@@H](C)/C=C(\C)[C@H](OC(N)=O)[C@@H](OC)/C=C\C=C(/C)C(=O)NC(=CC1=O)C2=O [Tanespimycin] + COc1cc(Nc2ncc(F)c(Nc3ccc4c(n3)NC(=O)C(C)(C)O4)n2)cc(OC)c1OC [Tamatinib] (first compound 0.002 µM, partner dose 0.4 µM) | 179%
14 | OCc1c[nH]c2ccccc12 [Indole-3-carbinol] + C=CCn1c(=O)c2cnc(Nc3ccc(N4CCN(C)CC4)cc3)nc2n1-c1cccc(C(C)(C)O)n1 [MK1775] (first compound 0.8 µM, partner dose 0.02 µM) | 85.4%
15 | Cc1ccc(NC(=O)c2cccc(N(C)C)c2)cc1NC(=O)c1ccc(O)cc1 + CN(NC(=O)CC(=O)NN(C)C(=S)c1ccccc1)C(=S)c1ccccc1 [STA4783] (first compound 2 µM, partner dose 0.006 µM) | 218%

Random excerpt: 2 entries already listed, in no set order.
Row | Compound | cleaved PARP positive nuclei fraction
10 | Clc1ccc(Nc2nnc(Cc3ccncc3)c3ccccc23)cc1 [vatalanib] + O=C(CCCCCCC(=O)Nc1ccccc1)NO [vorinostat] (first compound 2 µM, partner dose 0.08 µM) | 88.2%
9 | C=CCn1c(=O)c2cnc(Nc3ccc(N4CCN(C)CC4)cc3)nc2n1-c1cccc(C(C)(C)O)n1 + CN(C)S(=O)(=O)c1ccc2c(c1)/C(=C/c1cc3c([nH]1)CCCC3)C(=O)N2 [SU6656] (first compound 0.02 µM, partner dose 0.4 µM) | 198%
